Measured values from the supplement of paper PMC9015667.
Structures can show the parent of a compound that is named as a salt. The list shows a part of the results. Most values come without repeats; read them as rough.

Columns and labels:
Test in all cases: reduction in cell viability relative to untreated/vehicle; higher = more growth inhibition
Settings in all cases: 200 nM; 72 h
M229P = system: M229P (parental melanoma line)
M229R = system: M229R (matched melanoma line resistant to BRAF inhibitors)
M238P = system: M238P (parental melanoma line)
M238R = system: M238R (matched melanoma line resistant to BRAF inhibitors)
M249P = system: M249P (parental melanoma line)
M249R = system: M249R (matched melanoma line resistant to BRAF inhibitors)
UACC62P = system: UACC62P (parental melanoma line)
UACC62R = system: UACC62R (matched melanoma line resistant to BRAF inhibitors)

Row | SMILES | reduction in cell viability (M229P) | reduction in cell viability (M229R) | reduction in cell viability (M238P) | reduction in cell viability (M238R) | reduction in cell viability (M249P) | reduction in cell viability (M249R) | reduction in cell viability (UACC62P) | reduction in cell viability (UACC62R)
1 | OC(CCN1CCCCC1)(c1ccccc1)C1CC2C=CC1C2 (stereo unspecified) [Biperiden] | < 0% | < 0% | < 0% | < 0% | < 0% | < 0% | < 0% | < 0%
2 | CCCCCCCCCCCCCCCCCCCCCCO [Docosanol] | < 0% | < 0% | < 0% | < 0% | < 0% | < 0% | < 0% | < 0%
3 | CC(C)(F)C[C@H](N[C@@H](c1ccc(-c2ccc(S(C)(=O)=O)cc2)cc1)C(F)(F)F)C(=O)NC1(C#N)CC1 [Odanacatib] | < 0% | < 0% | < 0% | < 0% | < 0% | < 0% | < 0% | 23.3%
4 | CC1(C)O[C@@H]2C[C@H]3[C@@H]4C[C@H](F)C5=CC(=O)C=C[C@]5(C)[C@H]4[C@@H](O)C[C@]3(C)[C@]2(C(=O)CO)O1 [Flunisolide] | < 0% | < 0% | < 0% | < 0% | < 0% | < 0% | < 0% | < 0%
5 | CC(=O)C1=C(O)C=C2Oc3c(C(C)=O)c(O)c(C)c(O)c3C2(C)C1=O (single isomer, unassigned; (+)) [(+)-Usniacin] | < 0% | < 0% | < 0% | < 0% | < 0% | < 0% | < 0% | < 0%
6 | CCc1c2c(nc3ccc(O)cc13)-c1cc3c(c(=O)n1C2)COC(=O)[C@]3(O)CC | 47.5% | 69.7% | 72% | 49.3% | 48% | 67.3% | 61.4% | 67.8%
7 | CN1CCc2c(c3ccccc3n2Cc2ccc(C(=O)NO)cc2)C1 [Tubastatin A] | < 0% | < 0% | < 0% | < 0% | < 0% | < 0% | < 0% | < 0%
8 | COc1cc(CNC(=O)CCCC/C=C/C(C)C)ccc1O [Capsaicin] | < 0% | < 0% | < 0% | < 0% | < 0% | < 0% | < 0% | < 0%
9 | CCCOc1ccc2[nH]c(NC(=O)OC)nc2c1 [Oxibendazole] | 5.59% | 15.5% | 22.4% | 4.48% | 6.77% | 16.3% | 13.4% | 61.6%
10 | O=c1[nH]c(=O)n([C@H]2C[C@H](O)[C@@H](CO)O2)cc1F [Floxuridine] | 1.09% | 16.8% | 20.3% | < 0% | < 0% | < 0% | 24.9% | 78%
11 | OCCC#Cc1nc(-c2ccc(F)cc2)c(-c2ccncc2)n1CCCc1ccccc1 | < 0% | < 0% | < 0% | < 0% | < 0% | < 0% | < 0% | < 0%
12 | CC(Oc1ccc(O)cc1)(P(=O)(O)O)P(=O)(O)O | < 0% | 7.12% | < 0% | < 0% | < 0% | < 0% | < 0% | < 0%
13 | O=C(O)c1ccc(-c2c[nH]c3ncc(-c4ccccc4)cc23)cc1C1CCCC1 | < 0% | < 0% | < 0% | < 0% | < 0% | < 0% | < 0% | < 0%
14 | CC(C)n1c(/C=C/C(O)CC(O)CC(=O)O)c(-c2ccc(F)cc2)c2ccccc21 (stereo unspecified) [Fluvastatin] | < 0% | < 0% | 5.27% | < 0% | < 0% | < 0% | < 0% | < 0%
15 | O=C(O)[C@H]1O[C@@H](Oc2cc3oc(-c4ccccc4)cc(=O)c3c(O)c2O)[C@H](O)[C@@H](O)[C@@H]1O [Baicalin] | < 0% | 1.57% | < 0% | < 0% | < 0% | < 0% | < 0% | < 0%
16 | NC(=O)N1CCC(CC(=O)N2CCC([C@H]3c4ncc(Br)cc4CCc4cc(Cl)cc(Br)c43)CC2)CC1 [Lonafarnib] | < 0% | < 0% | < 0% | < 0% | < 0% | < 0% | < 0% | < 0%
17 | O=C(CCCCCCC(=O)Nc1cccnc1)NO [Pyroxamide] | < 0% | < 0% | < 0% | < 0% | < 0% | < 0% | < 0% | < 0%
18 | C=CC(=O)Nc1cc2c(Nc3ccc(F)c(Cl)c3)ncnc2cc1OCCCN1CCOCC1 [Canertinib] | < 0% | < 0% | < 0% | < 0% | < 0% | < 0% | < 0% | < 0%
19 | COc1ccccc1OCC(O)COC(N)=O (stereo unspecified) [Methocarbamol] | < 0% | < 0% | < 0% | < 0% | < 0% | < 0% | < 0% | < 0%
20 | O=C(CC12CC3CC(CC(C3)C1)C2)Nc1cccc2nc(NCCNCCO)ccc12 | < 0% | < 0% | < 0% | < 0% | < 0% | < 0% | < 0% | < 0%
21 | N#Cc1c(N(CC(=O)O)CC(=O)O)sc(C(=O)O)c1CC(=O)O [Strontium ranelate heptahydrate] | < 0% | < 0% | < 0% | < 0% | < 0% | < 0% | < 0% | < 0%

One compound at a time, from the list above. Values in the order: reduction in cell viability (M229P) | reduction in cell viability (M229R) | reduction in cell viability (M238P) | reduction in cell viability (M238R) | reduction in cell viability (M249P) | reduction in cell viability (M249R) | reduction in cell viability (UACC62P) | reduction in cell viability (UACC62R)
OCCC#Cc1nc(-c2ccc(F)cc2)c(-c2ccncc2)n1CCCc1ccccc1 in the list: < 0% | < 0% | < 0% | < 0% | < 0% | < 0% | < 0% | < 0%
O=C(O)c1ccc(-c2c[nH]c3ncc(-c4ccccc4)cc23)cc1C1CCCC1 in the list: < 0% | < 0% | < 0% | < 0% | < 0% | < 0% | < 0% | < 0%

Following part.

Row | SMILES | reduction in cell viability (M229P) | reduction in cell viability (M229R) | reduction in cell viability (M238P) | reduction in cell viability (M238R) | reduction in cell viability (M249P) | reduction in cell viability (M249R) | reduction in cell viability (UACC62P) | reduction in cell viability (UACC62R)
22 | CN(C)c1ccc(Nc2nc(N)n(C(=O)c3c(F)cccc3F)n2)cc1 | < 0% | < 0% | < 0% | < 0% | < 0% | < 0% | < 0% | < 0%
23 | CCn1c(-c2nonc2N)nc2cnc(Oc3cccc(NC(=O)c4ccc(OCCN5CCOCC5)cc4)c3)cc21 | < 0% | 13.8% | < 0% | < 0% | < 0% | < 0% | < 0% | < 0%
24 | CNC(=O)c1ccc(N2C(=S)N(c3ccc(C#N)c(C(F)(F)F)c3)C(=O)C2(C)C)cc1F | < 0% | < 0% | < 0% | < 0% | < 0% | < 0% | < 0% | < 0%
25 | CC(C)C[C@H](NC(=O)CNC(=O)c1cc(Cl)ccc1Cl)B(O)O | 91.3% | 84.6% | 90.6% | 94.5% | 92.9% | 93.3% | 89.6% | 87.4%
26 | COc1cc(Nc2c(C#N)cnc3cc(OCCCN4CCN(C)CC4)c(OC)cc23)c(Cl)cc1Cl [Bosutinib] | < 0% | < 0% | 9.33% | < 0% | 32.6% | 11.1% | 26.2% | < 0%
27 | Cc1cc(C(C)Nc2ccccc2)c2nc(N3CCOCC3)cc(=O)n2c1 (stereo unspecified) | < 0% | < 0% | < 0% | 13.6% | < 0% | < 0% | 6.6% | < 0%
28 | C[C@]12CCC3=C4CCC(=O)C=C4CC[C@H]3[C@@H]1CC[C@@]2(O)CC#N [Dienogest] | < 0% | < 0% | < 0% | < 0% | < 0% | < 0% | < 0% | < 0%
29 | CC(C)Oc1ccc(C(=O)N[C@H](CNC(=O)CN(C)C)Cc2ccc(-c3cn4cccc([C@H](C)O)c4n3)cc2)cc1Cl | 29.9% | 47.9% | 59.3% | 63.4% | 28.7% | 43.5% | 57.6% | 84.5%
30 | C[C@@H](O)[C@H]1C(=O)N2C(C(=O)O)=C(SCCNC=N)C[C@H]12 [Imipenem] | < 0% | < 0% | < 0% | < 0% | < 0% | < 0% | < 0% | < 0%
31 | O=c1c(-c2ccc(O)cc2)coc2c([C@@H]3O[C@H](CO)[C@@H](O)[C@H](O)[C@H]3O)c(O)ccc12 [Puerarin] | < 0% | < 0% | < 0% | < 0% | < 0% | < 0% | 4.44% | < 0%
32 | CN(C)c1ccc(C(=C2C=CC(=[N+](C)C)C=C2)c2ccc(N(C)C)cc2)cc1 [Methylrosaniline chloride] | 76.7% | 63% | 70.6% | 75.3% | 72.6% | 76.2% | 62.6% | 90.2%
33 | O=C(NCCCCN1CCOCC1)c1cc2ccccc2o1 | < 0% | < 0% | < 0% | < 0% | < 0% | < 0% | < 0% | < 0%
34 | Cc1cc(Cl)ccc1OCCCC(=O)NO [Droxinostat] | < 0% | < 0% | < 0% | < 0% | < 0% | < 0% | < 0% | < 0%
35 | CN(C)CCCC1(c2ccc(F)cc2)OCc2cc(C#N)ccc21 (stereo unspecified) [Citalopram hydrobromide] | < 0% | < 0% | < 0% | < 0% | < 0% | < 0% | < 0% | < 0%
36 | COc1ccc2c(c1)CC[C@H](CN(C)CC(=O)O)[C@@H]2c1ccccc1 | < 0% | < 0% | < 0% | < 0% | < 0% | 9.67% | < 0% | < 0%
37 | CNC(=O)c1ccc(Nc2cc(Nc3ccccc3S(=O)(=O)C(C)C)c3cc[nH]c3n2)nc1 | < 0% | 22.2% | < 0% | < 0% | < 0% | < 0% | < 0% | < 0%
38 | CC1(C)O[C@@H]2C[C@H]3[C@@H]4CCC5=CC(=O)C=C[C@]5(C)[C@@]4(F)[C@@H](O)C[C@]3(C)[C@]2(C(=O)CO)O1 [Triamcinolone acetonide] | < 0% | < 0% | < 0% | < 0% | < 0% | < 0% | < 0% | < 0%
39 | CCNC(=O)c1cc2c(-c3cc(OCCN4CCCC4)c(Cl)cc3Cl)nc(N)nc2s1 | < 0% | < 0% | < 0% | < 0% | < 0% | < 0% | < 0% | < 0%
40 | CCCCCCCCCCCC1=C(O)C(=O)C=C(O)C1=O [Embelin] | < 0% | < 0% | < 0% | < 0% | < 0% | < 0% | < 0% | < 0%
41 | CN(C)CCc1c[nH]c2ccc(CS(=O)(=O)N3CCCC3)cc12 [Almotriptan] | < 0% | < 0% | < 0% | < 0% | < 0% | 23.4% | < 0% | < 0%
42 | CN1C(C(=O)Nc2ccccn2)=C(O)c2sc(Cl)cc2S1(=O)=O [Lornoxicam] | < 0% | < 0% | < 0% | < 0% | < 0% | < 0% | < 0% | < 0%
